Experimental data: publication PMC9844640

How the values were obtained:
GST‐TPD52 = biological target: T1, GST‐TPD52 (UniProt P55327); test: pull-down; GST pull-down in vitro: GST-TPD52 with His-tagged AMPK subunits or AMPKα1 kinase domain, all purified from E. coli (Figure 1B, 1D); both purified
T1 sequence: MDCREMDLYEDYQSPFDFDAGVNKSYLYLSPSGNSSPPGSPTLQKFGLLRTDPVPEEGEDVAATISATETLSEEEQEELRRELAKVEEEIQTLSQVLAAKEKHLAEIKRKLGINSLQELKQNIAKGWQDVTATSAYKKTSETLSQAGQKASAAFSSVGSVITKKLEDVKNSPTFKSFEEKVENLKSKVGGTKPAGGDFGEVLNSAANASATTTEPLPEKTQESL

[1] = biological target: AMPKα (endogenous) (human (endogenous in 293T, SK-BR-3 and MDA-MB-231)); test: co-IP; SK-BR-3 cells, untreated or treated for 24 h with AICAR, metformin, amino acid shortage or glucose deprivation
[2] = biological target: AMPKα (endogenous) (human (endogenous in 293T, SK-BR-3 and MDA-MB-231)); test: co-IP; endogenous immunoprecipitation in 293T cells, NETN buffer, antibody with Protein A/G beads; irrelevant IgG as control
[3] = biological target: AMPKα (endogenous) (human (endogenous in 293T, SK-BR-3 and MDA-MB-231)); test: co-IP; MDA-MB-231 cells, control or stably transfected with TPD52; LKB1-AMPKα interaction examined

binding (GST‐TPD52): binds
Molecule: His‐tagged AMPKα1 kinase domain (AMPKαE) (domain or fragment)

binding [1]: binds
binding [2]: binds
B1: TPD52 (endogenous) (protein, UniProt P55327 1-224)
chain: MDCREMDLYEDYQSPFDFDAGVNKSYLYLSPSGNSSPPGSPTLQKFGLLRTDPVPEEGEDVAATISATETLSEEEQEELRRELAKVEEEIQTLSQVLAAKEKHLAEIKRKLGINSLQELKQNIAKGWQDVTATSAYKKTSETLSQAGQKASAAFSSVGSVITKKLEDVKNSPTFKSFEEKVENLKSKVGGTKPAGGDFGEVLNSAANASATTTEPLPEKTQESL

binding [3]: binds
B2: TPD52 (stably transfected in MDA‐MB‐231 cells) (protein, UniProt P55327 1-224)
chain: MDCREMDLYEDYQSPFDFDAGVNKSYLYLSPSGNSSPPGSPTLQKFGLLRTDPVPEEGEDVAATISATETLSEEEQEELRRELAKVEEEIQTLSQVLAAKEKHLAEIKRKLGINSLQELKQNIAKGWQDVTATSAYKKTSETLSQAGQKASAAFSSVGSVITKKLEDVKNSPTFKSFEEKVENLKSKVGGTKPAGGDFGEVLNSAANASATTTEPLPEKTQESL

No constants are given. Whether binding was seen depends on the method and setting. Binding can be weak; no strength is given. For some of these results: Tags and fused reporters may be left off the sequences shown. For some of these results: In cells and extracts the contact can be indirect. Each block holds one molecule with its values, some of them ahead of it.
